Source: PMC12462935
Results are given in words; binding and its absence hold for the method and conditions named. Binding seen in cells or lysates may run through a third protein. Some results given as binding are weak or reduced against the parent protein; the word gives no strength. For part of these data: Tags and fused reporters may be left off the sequences shown.

Sequences of proteins named here, by UniProt entry; tags and fusion partners are left off.
UniProt P19474: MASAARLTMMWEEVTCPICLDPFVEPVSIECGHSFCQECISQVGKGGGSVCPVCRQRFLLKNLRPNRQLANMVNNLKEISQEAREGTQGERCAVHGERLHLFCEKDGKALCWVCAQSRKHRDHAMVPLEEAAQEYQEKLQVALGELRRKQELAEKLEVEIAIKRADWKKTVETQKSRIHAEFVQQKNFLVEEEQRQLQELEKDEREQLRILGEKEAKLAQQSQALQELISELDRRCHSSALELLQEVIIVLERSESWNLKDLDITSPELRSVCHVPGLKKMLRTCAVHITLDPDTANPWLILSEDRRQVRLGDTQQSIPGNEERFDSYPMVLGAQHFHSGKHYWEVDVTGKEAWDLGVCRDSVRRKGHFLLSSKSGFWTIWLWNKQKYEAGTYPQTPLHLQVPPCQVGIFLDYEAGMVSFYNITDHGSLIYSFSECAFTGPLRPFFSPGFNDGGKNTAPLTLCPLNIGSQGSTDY

Tests used:
Flag-TRIM21 [1] = target: Flag-TRIM21 (UniProt P19474); test: co-IP; HEK293T cells co-transfected with tagged constructs (for ID1 with TCF3, TCF4 or TCF12: with TRIM21 or control vector); MG132 20 µM 6 h, lysates with primary antibodies and protein A/G magnetic beads overnight at 4 °C, immunoblot
[2] = target: TRIM21 (endogenous) (human (endogenous in KYSE30 and KYSE450)) (UniProt P19474); test: co-IP; endogenous proteins in KYSE30 and KYSE450 cells; anti-TRIM21 or anti-ID1 antibody for TRIM21 with ID1; for TCF12 with ID1 cells treated with 5 µM Sorafenib or not; MG132 20 µM 6 h, protein A/G magnetic beads, immunoblot
Flag-TRIM21 [3] = target: Flag-TRIM21 (UniProt P19474); test: co-IP; truncated constructs of ID1 (pEBG-GST) tested with TRIM21 and truncated constructs of TRIM21 (pcDNA3) tested with ID1; cells not given

B1: Myc-ID1 (protein, UniProt P41134 1-155)
chain: MKVASGSTATAAAGPSCALKAGKTASGAGEVVRCLSEQSVAISRCAGGAGARLPALLDEQQVNVLLYDMNGCYSRLKELVPTLPQNRKVSKVEILQHVIDYIRDLQLELNSESEVGTPGGRGLPVRAPLSTLNGEISALTAEAACVPADDRILCR
binding (Flag-TRIM21 [1]): binds

B2: ID1 (endogenous) (protein, UniProt P41134 1-155)
chain: MKVASGSTATAAAGPSCALKAGKTASGAGEVVRCLSEQSVAISRCAGGAGARLPALLDEQQVNVLLYDMNGCYSRLKELVPTLPQNRKVSKVEILQHVIDYIRDLQLELNSESEVGTPGGRGLPVRAPLSTLNGEISALTAEAACVPADDRILCR
binding [2]: binds

B3: ID1#2 (basic helix-loop-helix (bHLH) domain) (domain or fragment, UniProt P41134 53-105)
chain: LPALLDEQQVNVLLYDMNGCYSRLKELVPTLPQNRKVSKVEILQHVIDYIRDL
binding (Flag-TRIM21 [3]): binds
